Record: PubChem BioAssay AID602196 (INSERM, 2012)

- Purpose: 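Knock-downs that protect lung cancer cells from cisplatin or sensitise them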
- Cells: human A549 lung cancer cells
- Knock-down reagent: siRNA pair against human genes
- Timing: 48 h transfection before cisplatin; time from cisplatin to read-out not stated
- Challenge: cisplatin at a dose killing half of control-siRNA cells; exact dose and duration not given
- Detection: 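Cisplatin cell death as a shift from the 50% death seen with control siRNA; siRNAs toxic or growth-blocking alone scored 0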
- Direction: two-siRNA summed score (-2 to +2): higher = both siRNAs protect from cisplatin killing; -2 means both sensitise; mean protection from cisplatin (shift in death) and protection from cisplatin (shift in death), siRNA C and protection from cisplatin (shift in death), siRNA D: higher = protection from cisplatin killing
- Active means: 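siRNAs harmful alone (LDH or WST-1) get 0; others get +1 for less and -1 for more cisplatin killing; genes are active when the two siRNAs give the same sign, summing to ±2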
- Calls: active = both siRNAs shift cisplatin killing the same way; inactive = no consistent shift, or siRNA harmful alone
Here is one part, drawn at random, of about 23,000 reagents. 455 of all reagents (2%) count as active. 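Active includes both protection and sensitisation; some change values fall well beyond the stated -50 to +50 range.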 Unmarked entries are inactive. Not given: the amount of reagent.

target | two-siRNA summed score (-2 to +2) | mean protection from cisplatin (shift in death) (%) | protection from cisplatin (shift in death), siRNA C (%) | protection from cisplatin (shift in death), siRNA D (%)
EOMES (eomesodermin) | 0 | 3 | -2.5 | 8.6
FAM131B (family with sequence similarity 131 member B) | 0 | 7.2 | -8.2 | 22.5
LOC389085 | -1 | -6.4 | 1.8 | -14.6
EML2 (EMAP like 2) | 0 | 5.4 | 10 | 0.7
LOC400948 | -1 | -10.3 | -12.4 | -8.2
LRRC75A (leucine rich repeat containing 75A) | 1 | 9.8 | -8.8 | 28.4
GPA33 (glycoprotein A33) | 0 | -3.7 | -3.9 | -3.6
EIF1AY (eukaryotic translation initiation factor 1A Y-linked) | 0 | 9.1 | 6.5 | 11.7
STXBP2 (syntaxin binding protein 2) | 0 | 5.9 | 11.3 | 0.5
CSTL1 (cystatin like 1) | 1 | 4.8 | -7.7 | 17.3
SMAD5 (SMAD family member 5) | -1 | -6.5 | -23.1 | 10
EIF3I (eukaryotic translation initiation factor 3 subunit I) | 0 | 7.7 | 13.4 | 2.1
LOC440788 | 0 | 13.6 | 16.4 | 10.9
ZG16 (zymogen granule protein 16) | 0 | 7.8 | 7.6 | 7.9
TOMM7 (translocase of outer mitochondrial membrane 7) | 0 | 0.2 | 0.8 | -0.3
OR4B1 (olfactory receptor family 4 subfamily B member 1) | 0 | 12.5 | 9.6 | 15.3
NBPF3 (NBPF member 3) | 0 | 13.1 | 10.5 | 15.8

Looked up above:
For “mean protection from cisplatin (shift in death) (%)”, NBPF3 (NBPF member 3) is entered as 13.1
Value for LRRC75A (leucine rich repeat containing 75A) in “protection from cisplatin (shift in death), siRNA D (%)”: 28.4
OR4B1 (olfactory receptor family 4 subfamily B member 1), mean protection from cisplatin (shift in death) (%) → 12.5
For “two-siRNA summed score (-2 to +2)”, EML2 (EMAP like 2) shows 0
TOMM7 (translocase of outer mitochondrial membrane 7), mean protection from cisplatin (shift in death) (%): 0.2

Continued.
target | two-siRNA summed score (-2 to +2) | mean protection from cisplatin (shift in death) (%) | protection from cisplatin (shift in death), siRNA C (%) | protection from cisplatin (shift in death), siRNA D (%)
MMP17 (matrix metallopeptidase 17) | 0 | 2.1 | 1.2 | 3
ZNF23 (zinc finger protein 23) | 1 | 5.8 | 2.3 | 9.2
ANP32B (acidic nuclear phosphoprotein 32 family member B) | 1 | 13.9 | 27.1 | 0.7
IL5RA (interleukin 5 receptor subunit alpha) | 0 | -0.4 | 2.2 | -2.9
SEMA3E (semaphorin 3E) | 1 | 16.5 | 17.1 | 15.8
LINC00200 (long independently transcribed non-coding RNA 200) | 1 | 4.1 | 17.6 | -9.3
SFTPA2 (surfactant protein A2) | 1 | 7 | 1 | 13.1
BALR6 (B-cell acute lymphoblastic leukemia associated long RNA 6) | 0 | 4 | 9.3 | -1.3
CHRM5 (cholinergic receptor muscarinic 5) | 0 | 7.2 | 7.6 | 6.8
MAP4K4 (mitogen-activated protein kinase kinase kinase kinase 4) | -1 | -4 | -13.6 | 5.6
RNF32 (ring finger protein 32) | 0 | 9.4 | 8.3 | 10.5
HEYL | -1 | -12 | -1.9 | -22.1
PIK3R5 (phosphoinositide-3-kinase regulatory subunit 5) | 1 | -4 | 7.8 | -15.8
LOC442618 | 0 | -0.2 | 0 | -0.4
VPS26A (VPS26 retromer complex component A) | 0 | -5.2 | -17.2 | 6.7
LINC00951 (long independently transcribed non-coding RNA 951) | 0 | -0.2 | 2.2 | -2.6
DNAH7 (dynein axonemal heavy chain 7) | -1 | -13.6 | -26.1 | -1
LOC390613 | 0 | 5.9 | 13.6 | -1.9
KCNF1 | 0 | 5.6 | 7.8 | 3.3
OGG1 (8-oxoguanine DNA glycosylase) | -1 | -18 | -13 | -23
CYB561D1 (cytochrome b561 family member D1) | 0 | 15.2 | 26.4 | 4
LOC393076 (retired record) | 0 | 11.9 | 14.5 | 9.3
